From the supplement of paper PMC8975748
Counter-ions that a name gives are not always drawn. ± gives the standard deviation of the averaged measurements. The list shows a part of the results. Values are raw readings; no control value is given beside them.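 A single yeast strain with four plasmids, each encoding a fluorescent protein and an amino-acid or uracil biosynthesis gene, seeds the community. Stochastic plasmid loss yields mixed prototroph and auxotroph subpopulations. Fixed cells were counted via automated confocal fluorescence imaging; DMSO-treated wells were the vehicle reference.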

The compounds below were run on Saccharomyces cerevisiae BY4741 SeMeCo community (assay: imaged cell count per well (cells); higher = more cells). Settings: 10 µM; 24 h; SM minimal medium.
Experimental: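 Same SeMeCo high-content imaging drug screen: Selleck FDA-approved drugs at 10 µM, 24 h in SM medium, 384-well plates, 3 replicates.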

| SMILES | imaged cell count per well |
| --- | --- |
| Cc1cnc(NC(=O)C2=C(O)c3ccccc3S(=O)(=O)N2C)s1 [Meloxicam] | 22800 ± 3200 |
| CN(C)CCC[C@@]1(c2ccc(F)cc2)OCc2cc(C#N)ccc21 [Escitalopram Oxalate] | 26100 ± 6400 |
| CC(=O)NO [Acetohydroxamic acid] | 24200 ± 5300 |
| O=C1OCCN1/N=C/c1ccc([N+](=O)[O-])o1 [Furazolidone] | 20900 ± 4200 |
| c1cnc(N2CCN(Cc3ccc4c(c3)OCO4)CC2)nc1 [Piribedil] | 16600 ± 8600 |
| CCN(CC)CCOc1ccc2c(c1)C(=O)c1cc(OCCN(CC)CC)ccc1-2 [Tilorone dihydrochloride] | 26000 ± 4200 |
| CCCCN1CCCCC1C(=O)Nc1c(C)cccc1C (configuration not stated) [Bupivacaine HCl] | 19500 ± 9600 |
